Laboratory results reported in PubChem BioAssay AID540256 (National Center for Advancing Translational Sciences (NCATS), 2011).
About 3,700 (1.2%) of roughly 300,000 compounds were called active. The shares of active, inactive and inconclusive entries below differ from those in the screen. Calls come from the whole dose curve; tested in HEK293 cells. Potencies beside an inconclusive call are fits to weak or partial responses and may not hold up.

assay: qHTS for Inhibitors of binding or entry into cells for Lassa Virus; details: Lassa virus pseudotype entry inhibition, cell reporter; activity change, negative = inhibition: at 37.9 µM (top of the series) unless noted; note: nearly all actives have a fitted effect of over 50% in size
% is set by controls: 0 for no effect and ±100 for the full control effect; potency is the fitted concentration of half-maximal effect.

Row | Structure (SMILES) | Potency | activity change, negative = inhibition
1 | CC(=O)c1ccc(N2CCN(C(=O)c3ccc(OCc4c(C)noc4C)cc3)CC2)cc1 | inconclusive: 29.1 µM [inhibitor, single point] | 
2 | O=c1oc2ccccc2n1CCc1ccccc1 | inconclusive: 29.1 µM [activator, single point] | 
3 | C[C@]12C=CC(=O)C=C1CC[C@@H]1C2[C@@H](O)C[C@@]2(C)C1CC[C@]2(O)C(=O)COC(=O)CCC(=O)O (some centres not stated) | inconclusive: 6.31 µM [inhibitor, single point] | 
4 | O=C(c1cc2ccccc2o1)N1CCN(C/C=C/c2ccccc2)CC1 | inconclusive: 2.24 µM [inhibitor, partial curve, poor fit] | 
5 | O=C(CSc1nnnn1C1CCCC1)Nc1ccccc1N1CCOCC1 | inactive | 
6 | Cc1ccc(C)n1-c1ccc(C(=O)NC2CCN(Cc3ccccc3)CC2)cc1 | inconclusive: 10 µM [inhibitor, partial curve, poor fit] | 
7 | COc1ccccc1-n1nnnc1SCC(=O)N1CCCC1=O | inconclusive: 1.26 µM [inhibitor, full curve, poor fit] | 
8 | COc1cccc(C(=O)OCC(=O)Nc2cc(C)on2)c1OC | inconclusive: 35.5 µM [inhibitor, single point] | 
9 | Cc1ccc(CSCCNC(=O)c2ccc(N(C)S(=O)(=O)c3ccccc3)cc2)cc1 | inconclusive: 22.4 µM [inhibitor, single point] | 
10 | O=C(/C=C/c1cccc([N+](=O)[O-])c1)NC(=S)Nc1cccc(NC(=O)c2ccccc2Cl)c1 | inconclusive: 22.4 µM [inhibitor, single point] | 
11 | CCC(C)n1c(SCc2ccc(C(C)(C)C)cc2)nc2ccsc2c1=O (configuration not stated) | inactive | 
12 | Cc1ccc(-c2noc(C3CCCCC3)n2)cc1 | inconclusive: 17.8 µM [activator, single point] | 
13 | CCN(CC)CCN1C(=O)C(O)=C(C(=O)c2ccco2)C1c1ccccn1 (configuration not stated) | inconclusive: 5.17 µM [activator, partial curve, poor fit] | 
14 | CCOC(=O)Cc1csc(N/N=C/c2ccc(C(F)(F)F)cc2)n1 | inconclusive: 0.447 µM [inhibitor, partial curve, poor fit] | 
15 | CCOC(=O)c1sc(-c2ccc(OC)cc2)cc1N | inconclusive: 14.1 µM [inhibitor, single point] | 
16 | N#CCSc1nnc(COc2cccc3ccccc23)n1-c1cccc(Cl)c1 | inconclusive: 20.6 µM [inhibitor, single point] | 
17 | Cc1sc2nc(SCC(=O)c3cc(C)n(CC4CCCO4)c3C)n(C(C)C)c(=O)c2c1C (configuration not stated) | inconclusive: 14.6 µM [inhibitor, single point] | 
18 | CN(CCOc1ccc(Cl)cc1)C(=O)c1cccc(S(=O)(=O)N2CCN(c3ccc(F)cc3)CC2)c1 | inconclusive: 11.2 µM [inhibitor, partial curve, poor fit] | 
19 | C=C1C(=O)c2sccc2C(c2ccc(OC)c(OC)c2)C1COC(C)=O (configuration not stated) | active: 7.94 µM | 
20 | CCOC(=O)c1ccc(N=c2ssnc2Cl)cc1 | inconclusive: 35.5 µM [inhibitor, partial curve, poor fit] | 
21 | NC(=S)N/N=C/c1ccc2cccc(OCc3ccccc3)c2n1 | inconclusive: 11.2 µM [inhibitor, partial curve, poor fit] | 

Row | Structure (SMILES) | Potency | activity change, negative = inhibition
22 | OC1(C2(O)CC(c3ccccc3)ON2)CCCCC1 (configuration not stated) | inconclusive: 15.8 µM [inhibitor, single point] | 
23 | O=C(c1ccccc1Cl)N1N=C(c2ccc(Br)cc2)CC1c1nc2ccccc2[nH]1 (configuration not stated) | inconclusive: 29.1 µM [inhibitor, single point] | 
24 | Cc1ccc(Cl)cc1N1CCN(C(=O)c2cc3c(=O)n(C)c4ccccc4c3s2)CC1 | inconclusive: 3.55 µM [activator, full curve, poor fit] | 
25 | CN(C(=O)CCS(=O)(=O)c1ccc2c(c1)oc(=O)n2C)C1CCCCC1 | inconclusive: 2 µM [activator, full curve, poor fit] | 
26 | Cc1n[nH]c(=S)n1/N=C/c1cccc(OCc2ccccc2)c1 | inactive | 
27 | O=C(CC1NCCNC1=O)Nc1ccccc1F (configuration not stated) | inactive | 
28 | O=C(CSc1nnc(Cc2csc(Nc3cccc(Cl)c3)n2)o1)N1CCc2ccccc21 | inconclusive: 20 µM [inhibitor, partial curve, poor fit] | 
29 | COc1ccc(Cl)cc1C(=O)NNC(=O)c1[nH]c(C)c(C(C)=O)c1C | inactive | 
30 | O=C(Cc1cccs1)NCCN1CCOCC1 | inactive | 
31 | CCOC(=O)CC(=O)CSc1nc2ccccc2c(=O)n1-c1ccc(C(=O)NCCOC)cc1 | inactive | 
32 | Cc1ccn(CCNC(=O)C2CCC(=O)N(Cc3ccc(Cl)cc3)C2)n1 (configuration not stated) |  | inconclusive: 4.97% [activator]
33 | COC(=O)c1cc(-c2c(C)oc3cc(OC)ccc3c2=O)c(C)o1 | inconclusive: 16.4 µM [activator, partial curve, poor fit] | 
34 | COc1ccc(Nc2nnc(SCC(=O)/C=C3/N(C)c4ccccc4C3(C)C)s2)cc1 | active: 14.1 µM | 
35 | CC(=O)C1C(N2CC2)CC2C3CC=C4CC(O)CCC4(C)C3CCC21C (configuration not stated) | inconclusive: 11.2 µM [inhibitor, partial curve, poor fit] | 
36 | CCOC(=O)c1c(C)[nH]c(C(=O)OCC(=O)Nc2sccc2C(N)=O)c1C | inconclusive: 12.6 µM [inhibitor, single point] | 
37 | COc1ccc(S(=O)(=O)Nc2ccccc2C(F)(F)F)cc1 | inactive | 
38 | CCOC(=O)c1ccc(CC2S/C(=C(\C#N)C(C)=O)NC2=O)cc1 (configuration not stated) | inconclusive: 35.5 µM [inhibitor, single point] | 
39 | COC(=O)C(C)Oc1ccc2cc(-c3ccccc3)c(=O)oc2c1 (configuration not stated) | inactive | 
40 | N#Cc1nc(COc2ccc(-c3ccccc3)cc2)oc1NCCCN1CCOCC1 | inconclusive: 25.1 µM [inhibitor, single point] | 
41 | Oc1ccc(/C=N/Nc2nccnc2Cl)cc1 | inconclusive: 3.55 µM [activator, partial curve, poor fit] | 
42 | COc1ccc(Nc2c(-c3ccc(C)o3)nc3ccc(Cl)cn23)cc1 | inconclusive: 31.6 µM [activator, single point] | 

As entered above:
Entry for CCOC(=O)c1sc(-c2ccc(OC)cc2)cc1N under Potency: inconclusive: 14.1 µM [inhibitor, single point]
Entry for O=C(c1cc2ccccc2o1)N1CCN(C/C=C/c2ccccc2)CC1 under Potency: inconclusive: 2.24 µM [inhibitor, partial curve, poor fit]
